In the supplement of paper PMC5407854, “Inhibitor of ppGalNAc-T3-mediated O-glycosylation blocks cancer cell invasiveness and lowers FGF23 levels” (eLife, 2017):
Some of the results follow. Most values lie at the level of the controls, where differences are scatter.

These compounds were tested on ppGalNAc-T2 sensor (assay: T2 sensor activation Q score (MG/GFP ratio z-score vs DMSO controls) (SD units); higher = more sensor activation (inhibition of ppGalNAc-T2 glycosylation)). Conditions: HEK293 sensor cells; 10 µM; 6 h.
Method: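 Cells were treated with compound at 10 uM for 6 h, then MG/GFP ratio was read by flow cytometry (10,000 cells per well, duplicate wells). Q = (R - R_neg)/SD_neg relative to DMSO vehicle controls; the signal rises when the glycosyltransferase is inhibited.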

Row | Compound | T2 sensor activation Q score
1 | Cc1ccc(NCC(O)C(O)C(O)CO)cc1C (centres undefined) | -0.025
2 | C=CCc1ccccc1OCC(N)=O | -0.18
3 | COc1ccc2c(Cl)c(C(=O)N3CCCCC3)sc2c1 | -0.155
4 | O=C(O)c1ccccc1C(=O)c1ccc(Cl)c(Cl)c1 | -0.675
5 | CSc1nnc(-c2ccccc2Cl)o1 | 0.735
6 | Cc1c(NC(=O)c2ccc(Cl)cc2)c(=O)n(-c2ccccc2)n1C | -0.46
7 | COc1ccccc1C(=O)Nc1ccc2oc(-c3ccccc3C)nc2c1 | -0.295
8 | CCOC(=O)Nc1nnc(-c2ccc(C)cc2)s1 | -0.34
9 | COc1ccc(S(=O)(=O)N2CCCCC2)cc1 | -0.835
10 | Cc1ccc(CN2CCN(C(=O)c3ccccc3F)CC2)cc1 | 0.06
11 | CCOc1ccc(NC(=O)c2cccs2)cc1 | 0.53
12 | CN(Cc1ccccc1)Cc1ccccc1 | 0.04
13 | CC(C(=O)O)N1C(=O)c2ccccc2C1=O (centres undefined) | -0.35
14 | Nc1ccc(Sc2nc3ccccc3s2)c(Cl)c1 | 0.215
15 | Cc1c(Cl)cccc1NC(=O)CCc1ccccc1 | -0.97
16 | OC(C#Cc1ccccc1)c1cccs1 (centres undefined) | 0.46
17 | CN(C)Cc1ccccc1C(O)(c1ccccc1)c1ccccc1 | 0.775
18 | O=C(NCc1ccco1)c1cccc(Cl)c1 | 0.005
19 | COc1ccccc1NC(=O)c1cccs1 | -0.505
20 | O=C(CCc1ccccc1)Nc1ccc(F)cc1F | -0.77
21 | CCCOC(=O)Nc1nnc(CCC)s1 | -1.1
22 | O=C(NCCc1ccccc1)c1ccc(Cl)c(Cl)c1 | 0.8
23 | O=S(=O)(Cc1ccccc1)c1nc2ccccc2[nH]1 | 0.475
24 | COc1cccc(NC2=C(N(C)C)C(=O)c3ccccc3C2=O)c1 | -0.115

Some of these compounds in order of count of non-hydrogen atoms, ascending:
Row | Compound | T2 sensor activation Q score
22 | O=C(NCCc1ccccc1)c1ccc(Cl)c(Cl)c1 | 0.8
24 | COc1cccc(NC2=C(N(C)C)C(=O)c3ccccc3C2=O)c1 | -0.115
7 | COc1ccccc1C(=O)Nc1ccc2oc(-c3ccccc3C)nc2c1 | -0.295
